Measurements reported in PubChem BioAssay AID493246 (Drosophila RNAi Screening Center, 2011).
In all, the deposit lists about 21,000 reagents; below is an unselected part of those with a known target gene and a result. Over the whole deposit, 429 (2%) are marked active. 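Values are raw and not normalised between plates; calls rest on per-plate z-scores that were not deposited.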 Not stated in the record: the amount of reagent, the time to read-out.

- Screen: 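Identify essential fly genes by loss of cell viability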 (primary screen)
- Cells: Drosophila Kc and S2R+ cells
- Knock-down reagent: long dsRNA against Drosophila genes
- Measured: 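Raw, unnormalised count of remaining cells in each well; per-plate z-scores of cell number underlie the calls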
- Reading the numbers: Kc cell number and S2R+ cell number: higher = more cells remaining
- Hit rule: 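Active when the per-plate z-score of cell number is 3 or more in the direction of fewer cells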

After knock-down of sqh (spaghetti squash) [DRSC18837], the record shows Kc cell number, rep 1 = 5.76e5; S2R+ cell number, rep 1 = 8.71e5; inactive.
For eys (eyes shut) [DRSC00113], the entry reads Kc cell number, rep 1 = 1.47e6; Kc cell number, rep 2 = 1.53e6; S2R+ cell number, rep 1 = 9.78e5; S2R+ cell number, rep 2 = 1.06e6; inactive.
After knock-down of eys (eyes shut) [DRSC00402], the screen gave Kc cell number, rep 1 = 1.47e6; Kc cell number, rep 2 = 1.50e6; S2R+ cell number, rep 1 = 1.01e6; S2R+ cell number, rep 2 = 1.17e6; inactive.
For eys (eyes shut) [DRSC00403], the values are Kc cell number, rep 1 = 1.45e6; Kc cell number, rep 2 = 1.54e6; S2R+ cell number, rep 1 = 9.30e5; S2R+ cell number, rep 2 = 1.03e6; inactive.
eys (eyes shut) [DRSC00695] showed Kc cell number, rep 1 = 1.32e6; Kc cell number, rep 2 = 1.46e6; S2R+ cell number, rep 1 = 1.01e6; S2R+ cell number, rep 2 = 9.71e5; inactive.
For Pgam5 (Phosphoglycerate mutase 5) [DRSC18551], the values are Kc cell number, rep 1 = 4.74e5; S2R+ cell number, rep 1 = 7.47e5; inactive.
Against yellow-h [DRSC17141] the deposit lists Kc cell number, rep 1 = 1.50e6; Kc cell number, rep 2 = 1.51e6; S2R+ cell number, rep 1 = 1.01e6; S2R+ cell number, rep 2 = 1.14e6; inactive.
Against CG18870 [DRSC04313], the values are Kc cell number, rep 1 = 1.56e6; Kc cell number, rep 2 = 1.64e6; S2R+ cell number, rep 1 = 1.13e6; S2R+ cell number, rep 2 = 2.96e5; inactive.
Fen1 (Flap endonuclease 1) [DRSC07415] showed Kc cell number, rep 1 = 1.61e6; Kc cell number, rep 2 = 1.61e6; S2R+ cell number, rep 1 = 1.17e6; S2R+ cell number, rep 2 = 1.28e6; inactive.
With knock-down of beat-VII (beaten path VII) [DRSC13780], the record shows Kc cell number, rep 1 = 1.30e6; Kc cell number, rep 2 = 1.53e6; S2R+ cell number, rep 1 = 1.20e6; S2R+ cell number, rep 2 = 9.24e5; inactive.
Silencing of beat-VII (beaten path VII) [DRSC14743] resulted in: Kc cell number, rep 1 = 1.44e6; Kc cell number, rep 2 = 1.52e6; S2R+ cell number, rep 1 = 1.04e6; S2R+ cell number, rep 2 = 1.13e6; inactive.
For beat-VII (beaten path VII) [DRSC14744] the deposit lists Kc cell number, rep 1 = 1.55e6; Kc cell number, rep 2 = 1.57e6; S2R+ cell number, rep 1 = 1.01e6; S2R+ cell number, rep 2 = 1.14e6; inactive.
After knock-down of Vha36-3 (Vacuolar H[+] ATPase 36kD subunit 3) [DRSC18615], the screen gave Kc cell number, rep 1 = 1.41e6; Kc cell number, rep 2 = 1.46e6; S2R+ cell number, rep 1 = 9.86e5; S2R+ cell number, rep 2 = 1.09e6; inactive.
AP-2alpha (Adaptor Protein complex 2, alpha subunit) [DRSC00800] scored Kc cell number, rep 1 = 1.58e6; Kc cell number, rep 2 = 1.59e6; S2R+ cell number, rep 1 = 1.15e6; S2R+ cell number, rep 2 = 1.29e6; inactive.
After knock-down of shu (shutdown) [DRSC04484], the screen gave Kc cell number, rep 1 = 1.39e6; Kc cell number, rep 2 = 1.46e6; S2R+ cell number, rep 1 = 1.12e6; S2R+ cell number, rep 2 = 1.15e6; inactive.
CG31464 [DRSC14345] scored Kc cell number, rep 1 = 1.79e6; Kc cell number, rep 2 = 2.03e6; S2R+ cell number, rep 1 = 1.30e6; S2R+ cell number, rep 2 = 1.40e6; inactive.
CG42539 (retired record) [DRSC13691] scored Kc cell number, rep 1 = 1.09e6; Kc cell number, rep 2 = 1.46e6; S2R+ cell number, rep 1 = 1.14e6; S2R+ cell number, rep 2 = 1.16e6; inactive.
CG6793 [DRSC10714] showed Kc cell number, rep 1 = 1.37e6; Kc cell number, rep 2 = 1.40e6; S2R+ cell number, rep 1 = 1.24e6; S2R+ cell number, rep 2 = 1.34e6; inactive.
After knock-down of CG11382 [DRSC18624] the results were Kc cell number, rep 1 = 1.51e6; Kc cell number, rep 2 = 1.55e6; S2R+ cell number, rep 1 = 1.08e6; S2R+ cell number, rep 2 = 1.24e6; inactive.
pot (papillote) [DRSC19850] showed Kc cell number, rep 1 = 7.15e5; S2R+ cell number, rep 1 = 9.20e5; inactive.
l(3)04053 (lethal (3) 04053) [DRSC11640] scored Kc cell number, rep 1 = 1.37e6; Kc cell number, rep 2 = 1.40e6; S2R+ cell number, rep 1 = 1.02e6; S2R+ cell number, rep 2 = 1.17e6; inactive.
CG18622 [DRSC15360] gave Kc cell number, rep 1 = 1.37e6; Kc cell number, rep 2 = 1.34e6; S2R+ cell number, rep 1 = 1.16e6; S2R+ cell number, rep 2 = 1.27e6; inactive.
After knock-down of CG12868 [DRSC06207] the results were Kc cell number, rep 1 = 1.71e6; Kc cell number, rep 2 = 1.80e6; S2R+ cell number, rep 1 = 1.43e6; S2R+ cell number, rep 2 = 1.59e6; inactive.
Dab (Disabled) [DRSC11140] showed Kc cell number, rep 1 = 1.41e6; Kc cell number, rep 2 = 1.56e6; S2R+ cell number, rep 1 = 1.05e6; S2R+ cell number, rep 2 = 1.11e6; inactive.
Silencing of CG17199 [DRSC15192] gave: Kc cell number, rep 1 = 1.41e6; Kc cell number, rep 2 = 1.50e6; S2R+ cell number, rep 1 = 1.02e6; S2R+ cell number, rep 2 = 1.05e6; inactive.
Against CG31534 (retired record) [DRSC12141], the values are Kc cell number, rep 1 = 1.47e6; Kc cell number, rep 2 = 1.42e6; S2R+ cell number, rep 1 = 1.44e6; S2R+ cell number, rep 2 = 1.56e6; inactive.
CG31534 (retired record) [DRSC12289] gave Kc cell number, rep 1 = 1.39e6; Kc cell number, rep 2 = 1.64e6; S2R+ cell number, rep 1 = 1.24e6; S2R+ cell number, rep 2 = 1.41e6; inactive.

No new results follow: entries from further up.
CG6793 [DRSC10714] → Kc cell number, rep 1: 1.37e6; Kc cell number, rep 2: 1.40e6; S2R+ cell number, rep 1: 1.24e6; S2R+ cell number, rep 2: 1.34e6; outcome: inactive
CG11382 [DRSC18624] → Kc cell number, rep 1: 1.51e6; Kc cell number, rep 2: 1.55e6; S2R+ cell number, rep 1: 1.08e6; S2R+ cell number, rep 2: 1.24e6; outcome: inactive
pot (papillote) [DRSC19850] → Kc cell number, rep 1: 7.15e5; S2R+ cell number, rep 1: 9.20e5; outcome: inactive
l(3)04053 (lethal (3) 04053) [DRSC11640] → Kc cell number, rep 1: 1.37e6; Kc cell number, rep 2: 1.40e6; S2R+ cell number, rep 1: 1.02e6; S2R+ cell number, rep 2: 1.17e6; outcome: inactive
